According to US20080004694A1, “COMPOSITIONS AND METHODS FOR ADMINISTERING DEXAMETHASONE WHICH PROMOTE HUMAN CORONARY ARTERY ENDOTHELIAL CELL MIGRATION” (ABBOTT LABORATORIES, priority 2006, published 2008):
Entries after “also recorded” stand apart in the source; their conditions may differ. At least one structure is not confirmed: it was looked up by name or label, or the drawing left a doubt.

Key:
[1] = tested on: human coronary artery endothelial cells (hCaEC); assay: hCaEC migration in response to FBS after 24 h drug pretreatment; format: cell-based; settings: 24 h pretreatment in growth media; migration to 5% FBS without growth factors; drug present
Description: (§1) In acute studies, cells were collected, counted, and 200,000 hCaEC or 160,000 hCaSMC placed in the upper chambers of modified boyden chambers in 24 well plates (BD Biosciences). Plates contained microporous membranes of 3.0 and 8.0 um for hCaEC and hCaSMC, respectively. […] After migration, cells were stained with calcein-AM for 90 minutes and fluorescence determined using a plate reader capable of measuring fluorescence emitted by the bottom of the microporous filter.
To determine if growth factors contained in full growth media played a role in the inability of the mTOR antagonists (sirolimus or zotarolimus) or dexamethasone to inhibit migration, additional experiments were conducted to determine if drug pretreatment would affect migration induced by 5% FBS in the absence of growth factors. Migration in response to FBS following pretreatment of hCaEC with different concentrations of drugs was determined for the drugs sirolimus, dexamethasone, zotarolimus, and paclitaxel. To explore this effect in hCaEC, cells were synchronized, pretreated with drug in growth media for 24 hours, resuspended in basal media containing drug and migration in response to FBS determined. […] Dexamethasone promoted hCaEC migration.

[2] = tested on: p70S6K (T389) phosphorylation in hCaEC; assay: Western blot of p70S6K (T389) phosphorylation in hCaEC; format: cell-based, human; settings: 300 nM drug in growth media, 36 hours, after 24 h synchronization
Description: Human Coronary Endothelial Cells (hCaEC, Cambrex) were seeded on 100 mm plastic dishes (1-3×10^5 cells per dish) and incubated at 37° C. with 5% CO2 in complete growth media containing hFGF, HEGF, VEGF, R^3-IGF-1 and 5% FBS (GM). Cells were allowed to grow until dishes were 30-40% confluent. Cells were synchronized by incubation in basal media without supplements (BM) for 24 h. After synchronization the BM was replaced with GM containing test compounds, DMSO and BSA (Experimental dish: GM containing 300 nM test compounds, 0.1% BSA; Positive control: GM containing 0.1% BSA and 0.1% DMSO; Negative control: BM containing 0.1 or 0.5% FBS, 0.1% BSA and 0.1% DMSO). […]
The total protein concentration of the samples was determined by a modification of the method of Bradford (Quick Start Bradford Microplate Standard Assay, Bio-Rad) with bovine γ-globulin as a standard.
Total volume of the loaded sample was 45 ul containing 15 ul of 3× sample buffer (Laemmli Sample Buffer, Bio Rad), and sample (30 ul) containing 25 to 50 ug of protein. […] Denaturated samples were separated in 4-15% gradient or 12% Ready Tris-HCl gels (Bio-Rad) in running buffer 25 mM Tris, pH 8.3, 192 mM glycine, 0.1% SDS at 150-180 V for 60-90 minutes and transferred to Hybond-ECL membrane (Amersham Biosciences) in 25 mM Tris, pH 8.3, 192 mM glycine, 20% methanol at 100 V for 1 hour. […]

[3] = tested on: human coronary artery smooth muscle cells (hCaSMC); assay: hCaSMC migration, modified Boyden chamber, acute drug exposure, induced by 5% FBS; settings: no pretreatment, 22 hour migration
[4] = tested on: p70S6K (T389) phosphorylation in hCaSMC; assay: Western blot of p70S6K (T389) phosphorylation in hCaSMC; format: cell-based, human; settings: 300 nM drug, 36 hours, after 24 h synchronization
Description: To determine if inhibition of p70S6K was involved in serum-induced migration Western blot experiments were performed on hCaEC and hCaSMC treated using an experimental paradigm similar to those of the migration experiments. […] The effects of drug treatment on p70S6K T389 phosphorylation in hCaEC are illustrated in FIG. 6A-6B. […] Paclitaxel also reduces T389 phosphorylation though this effect is less than that of the mTOR antagonists.
Membranes were probed with a rabbit anti-phospho-p70S6K (T389) monoclonal antibody (Cell Signaling). […] Furthermore, the anti-migratory activity of the mTOR antagonists is not likely to contribute to their anti-restenotic activity. Conversely, paclitaxel is a potent anti-migratory agent and this effect is likely to contribute to the anti-restenotic activity.

[5] = tested on: human coronary artery smooth muscle cells (hCaSMC); assay: hCaSMC migration in response to FBS alone after 24 h drug pretreatment; format: cell-based; settings: 24 h pretreatment in growth media, drug present
Description: as §1
Another experiment was conducted to determine if growth factors contained in full growth media played a role in the inability of the mTOR antagonist zotarolimus or dexamethasone to inhibit human coronary artery smooth muscle cell (hCaSMC) migration. Migration in response to FBS following pretreatment of hCaSMC with different concentrations of drugs was determined for the drugs dexamethasone, zotarolimus, rapamycin, and paclitaxel. To explore this effect, hCaSMC were synchronized, pretreated with drug in growth media for 24 hours, resuspended in basal media containing drug and migration in response to FBS alone determined.

[6] = tested on: human coronary artery endothelial cells (hCaEC); assay: hCaEC migration induced by full growth media after 24 h drug pretreatment; format: cell-based; settings: 24 h pretreatment in full growth media; drug present during migration
Description: as §1
Migration of hCaEC was induced by full growth media and the effects of the drugs sirolimus, dexamethasone, zotarolimus, everolimus, and paclitaxel on hCaEC migration determined. Following pretreatment cells were counted and re-suspended in basal media containing drugs and migration initiated.

[7] = tested on: human coronary artery smooth muscle cells (hCaSMC); assay: PDGF-BB induced hCaSMC migration after 24 h drug pretreatment; format: cell-based; settings: 24 h pretreatment; PDGF-BB 25 ng/ml
Description: as §1
Pre-exposure with the mTOR agent sirolimus has been reported to block rat aortic smooth muscle cell migration in response to S1P-1 and porcine aortic smooth muscle in response to PDGF-BB. […] In contrast to their inability to block serum-induced migration, zotarolimus, dexamethasone, and paclitaxel all inhibited migration in response to the single chemotactic agent PDGF-BB (25 ng/ml).

[8] = tested on: human coronary artery endothelial cells (hCaEC); assay: hCaEC migration, modified Boyden chamber, acute drug exposure, induced by 5% FBS; format: cell-based; settings: no pretreatment, 22 hour migration
Description: As such, EC and SMC migration in response to hFGF, HEGF, VEGF, R^3-IGF-1 and FBS or FBS alone was determined using a modified Boyden chamber.
When necessary, each cell type was passed at ˜75% confluence.
as §1

[9] = tested on: porcine aortic smooth muscle; settings: pre-exposure; reported in the literature; cited from earlier work
[10] = tested on: rat vascular smooth muscle cells; settings: reported in the literature; cited from earlier work

| SMILES | effect on FBS-induced hCaEC migration after drug pretreatment [1] | effect on p70S6K T389 phosphorylation in hCaEC ([2]; listed as Dexamethasone) | effect on hCaSMC migration induced by FBS [3] | effect on p70S6K T389 phosphorylation in hCaSMC [4] | effect on FBS-induced hCaSMC migration after drug pretreatment [5] | effect on full growth media induced hCaEC migration after drug pretreatment [6] | effect on hCaSMC migration in response to PDGF-BB [7] | effect on hCaEC migration [8] | effect on porcine aortic smooth muscle migration in response to PDGF-BB [9] | effect on p70S6K T389 phosphorylation in hCaEC [2] | effect on rat smooth muscle cell migration in response to S1P [10] |
| --- | --- | --- | --- | --- | --- | --- | --- | --- | --- | --- | --- |
| C[C@@H]1C[C@H]2[C@@H]3CCC4=CC(=O)C=C[C@]4(C)[C@@]3(F)[C@@H](O)C[C@]2(C)[C@@]1(O)C(=O)CO [dexamethasone] | promoted | slightly augments | small inhibitory effect | without effect | small anti-migratory effect | only paclitaxel inhibits | inhibited | modest pro-migratory effect | – | – | – |
| CO[C@H]1C[C@@H]2CC[C@@H](C)[C@@](O)(O2)C(=O)C(=O)N2CCCC[C@H]2C(=O)O[C@H]([C@H](C)C[C@@H]2CC[C@@H](O)[C@H](OC)C2)CC(=O)[C@H](C)/C=C(\C)[C@@H](O)[C@@H](OC)C(=O)[C@H](C)C[C@H](C)/C=C/C=C/C=C/1C [sirolimus] | did not significantly block | – | – | completely inhibit | did not significantly block | only paclitaxel inhibits | – | – | block | completely block | inhibits; also recorded: block |
